Data source: PubChem BioAssay AID1159578 (Peter MacCallum Cancer Centre, 2015)

- Screen: 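siRNA pools altering how lymphatic endothelial cells close a scratch wound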 (primary screen)
- Cell system: human lymphatic endothelial cells
- Reagents: siRNA pool against human genes, 40 nM
- Time to read-out: 48 h after transfection
- Detection: 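Cells stained with dye and imaged after a scratch; covered wound area and nuclei counted, duplicates averaged, migration set against mock wells and turned into a robust z-score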
- Scale: migration robust z-score: higher = faster migration into the scratch; migration relative to mock: higher = more scratch area covered than mock; nuclei per well: higher = more cells in the well
- Hit rule: 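Pools averaging fewer than 3300 nuclei are never called; remaining pools count as changed when migration robust z lies outside -2 to 2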
- Meaning of the calls: active = migration changed; inactive = no migration change, or too few cells
The deposit covers about 18,000 reagents; below is a random part of them. In the full data, about 1,030 (5.7%) are marked active. 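Inactive calls also include pools with fewer than 3300 nuclei, whose migration was not assessed.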 Raw values are not corrected between plates. Unmarked entries are inactive.

target gene	migration robust z-score	migration class with cell-count check	migration relative to mock	nuclei per well, duplicate mean
SPEF1	1.73	migration z between -2 and 2; enough cells	1.34	6950
GLRA1	-1.48	migration z between -2 and 2; enough cells	0.52	4071
PRPF38B	-0.37	migration z between -2 and 2; enough cells	0.79	5662
KAT5	-0.33	migration z between -2 and 2; enough cells	0.8	6079
POTEG	-1.23	migration z between -2 and 2; enough cells	0.56	4636
H1-1	-1.84	migration z between -2 and 2; enough cells	0.4	3816
SMG5	1.25	migration z between -2 and 2; enough cells	1.21	5650
LINC01559	-0.39	migration z between -2 and 2; enough cells	0.78	5480
TMEM67	-0.56	migration z between -2 and 2; enough cells	0.74	3914
SEPTIN3	-0.7	migration z between -2 and 2; enough cells	0.67	4732
KRTAP12-2	-2.66 (active)	migration z below -2; enough cells	0.18	4264

Continued (3 carried over from the part before).
target gene	migration robust z-score	migration class with cell-count check	migration relative to mock	nuclei per well, duplicate mean
TMEM67	-0.56	migration z between -2 and 2; enough cells	0.74	3914
SEPTIN3	-0.7	migration z between -2 and 2; enough cells	0.67	4732
KRTAP12-2	-2.66 (active)	migration z below -2; enough cells	0.18	4264
GABRD	-1.32	under 3300 nuclei; migration not judged	0.55	3180
NMB	-1.38	migration z between -2 and 2; enough cells	0.53	5912
PITPNM2	0.28	migration z between -2 and 2; enough cells	0.86	4771
ZNF335	1.71	migration z between -2 and 2; enough cells	1.33	6665
MCM8	-1.12	migration z between -2 and 2; enough cells	0.59	5896
TECPR2	1.72	migration z between -2 and 2; enough cells	1.33	5292
CTNNB1	-0.94	migration z between -2 and 2; enough cells	0.62	6122
KMT2E	0.08	migration z between -2 and 2; enough cells	0.82	4934
TGM2	0.76	migration z between -2 and 2; enough cells	0.95	4174
H3-5	-0.48	migration z between -2 and 2; enough cells	0.76	4884
LITAF	-0.32	migration z between -2 and 2; enough cells	0.74	7237
FOLH1	0.36	migration z between -2 and 2; enough cells	0.88	5036
